Results on three molecules are retold here after paper doi:10.1101/2022.06.12.495191.

Results are given in words; binding and its absence hold for the method and conditions named. In cells and extracts the contact can be indirect. These calls come from enrichment with a bait or labelling near it, and not all partners need be listed. For part of these data: Tags and fused reporters may be left off the sequences shown.

Assay [1] has as its target T1, 3xFLAG-MINU2 (MINUSCULE2, 3xFLAG-tagged) (Arabidopsis) (UniProt F4K128).
T1 sequence: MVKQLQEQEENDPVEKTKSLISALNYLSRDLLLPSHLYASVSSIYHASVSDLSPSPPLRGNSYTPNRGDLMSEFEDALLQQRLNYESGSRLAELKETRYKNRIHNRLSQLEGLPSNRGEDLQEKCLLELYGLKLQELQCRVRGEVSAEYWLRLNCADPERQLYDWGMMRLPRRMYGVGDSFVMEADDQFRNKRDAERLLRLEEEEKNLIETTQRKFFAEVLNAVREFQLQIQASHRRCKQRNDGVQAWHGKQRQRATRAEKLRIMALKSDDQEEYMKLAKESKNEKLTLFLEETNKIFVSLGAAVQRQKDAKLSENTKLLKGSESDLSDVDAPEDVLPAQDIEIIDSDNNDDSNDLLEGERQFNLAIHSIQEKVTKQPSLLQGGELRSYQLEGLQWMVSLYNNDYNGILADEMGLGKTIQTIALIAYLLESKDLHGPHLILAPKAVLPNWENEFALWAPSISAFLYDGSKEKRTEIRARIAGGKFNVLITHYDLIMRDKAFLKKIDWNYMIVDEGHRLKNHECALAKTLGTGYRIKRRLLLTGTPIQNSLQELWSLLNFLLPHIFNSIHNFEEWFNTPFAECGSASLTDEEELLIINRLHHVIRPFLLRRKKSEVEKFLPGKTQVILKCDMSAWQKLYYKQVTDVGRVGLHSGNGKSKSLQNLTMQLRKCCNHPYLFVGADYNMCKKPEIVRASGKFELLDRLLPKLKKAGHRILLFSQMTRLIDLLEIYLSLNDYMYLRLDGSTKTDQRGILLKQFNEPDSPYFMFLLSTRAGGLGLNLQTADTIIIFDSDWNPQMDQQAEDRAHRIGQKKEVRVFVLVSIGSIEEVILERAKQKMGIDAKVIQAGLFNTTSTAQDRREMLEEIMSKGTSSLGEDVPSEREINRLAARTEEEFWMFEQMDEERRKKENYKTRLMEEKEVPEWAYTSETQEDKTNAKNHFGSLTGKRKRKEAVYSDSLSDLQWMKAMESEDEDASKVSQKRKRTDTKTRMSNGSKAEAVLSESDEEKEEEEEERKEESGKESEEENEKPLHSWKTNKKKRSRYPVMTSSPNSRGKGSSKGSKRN
As to the kind of experiment: affinity purification with mass spectrometry.

Assay [2] addresses TPF2-3xFLAG (TRIPLE PHD FINGERS 2, 3xFLAG-tagged) (Arabidopsis). As to the kind of experiment: affinity purification with mass spectrometry.

On to TRIPLE PHD FINGERS 1 (TPF1), endogenous, for which the binding result in assay [1] is on record as “binds”.
Still for that read-out and setting: the value for TRIPLE PHD FINGERS 2 (TPF2), endogenous was “binds”.

B1: MINUSCULE2 (MINU2), endogenous (enzyme, UniProt F4K128 1-1064)
chain: MVKQLQEQEENDPVEKTKSLISALNYLSRDLLLPSHLYASVSSIYHASVSDLSPSPPLRGNSYTPNRGDLMSEFEDALLQQRLNYESGSRLAELKETRYKNRIHNRLSQLEGLPSNRGEDLQEKCLLELYGLKLQELQCRVRGEVSAEYWLRLNCADPERQLYDWGMMRLPRRMYGVGDSFVMEADDQFRNKRDAERLLRLEEEEKNLIETTQRKFFAEVLNAVREFQLQIQASHRRCKQRNDGVQAWHGKQRQRATRAEKLRIMALKSDDQEEYMKLAKESKNEKLTLFLEETNKIFVSLGAAVQRQKDAKLSENTKLLKGSESDLSDVDAPEDVLPAQDIEIIDSDNNDDSNDLLEGERQFNLAIHSIQEKVTKQPSLLQGGELRSYQLEGLQWMVSLYNNDYNGILADEMGLGKTIQTIALIAYLLESKDLHGPHLILAPKAVLPNWENEFALWAPSISAFLYDGSKEKRTEIRARIAGGKFNVLITHYDLIMRDKAFLKKIDWNYMIVDEGHRLKNHECALAKTLGTGYRIKRRLLLTGTPIQNSLQELWSLLNFLLPHIFNSIHNFEEWFNTPFAECGSASLTDEEELLIINRLHHVIRPFLLRRKKSEVEKFLPGKTQVILKCDMSAWQKLYYKQVTDVGRVGLHSGNGKSKSLQNLTMQLRKCCNHPYLFVGADYNMCKKPEIVRASGKFELLDRLLPKLKKAGHRILLFSQMTRLIDLLEIYLSLNDYMYLRLDGSTKTDQRGILLKQFNEPDSPYFMFLLSTRAGGLGLNLQTADTIIIFDSDWNPQMDQQAEDRAHRIGQKKEVRVFVLVSIGSIEEVILERAKQKMGIDAKVIQAGLFNTTSTAQDRREMLEEIMSKGTSSLGEDVPSEREINRLAARTEEEFWMFEQMDEERRKKENYKTRLMEEKEVPEWAYTSETQEDKTNAKNHFGSLTGKRKRKEAVYSDSLSDLQWMKAMESEDEDASKVSQKRKRTDTKTRMSNGSKAEAVLSESDEEKEEEEEERKEESGKESEEENEKPLHSWKTNKKKRSRYPVMTSSPNSRGKGSSKGSKRN
As for B1, the binding entry in assay [2] is “binds”.
